Construct, isoform or probe ends are uncertain for at least one entry.

This data set deals with T1, His6-LexA (Streptomyces mobaraensis NBRC 13819) (UniProt A0A5N5W758).
T1 sequence: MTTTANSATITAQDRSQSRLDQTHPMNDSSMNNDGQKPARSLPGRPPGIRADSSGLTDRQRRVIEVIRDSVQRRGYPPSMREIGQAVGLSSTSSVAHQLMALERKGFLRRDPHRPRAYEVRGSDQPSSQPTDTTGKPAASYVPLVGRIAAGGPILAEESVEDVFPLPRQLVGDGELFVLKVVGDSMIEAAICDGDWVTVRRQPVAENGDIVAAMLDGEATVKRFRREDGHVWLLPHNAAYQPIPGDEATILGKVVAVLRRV
As to the kind of experiment: EMSA. Conditions: EMSA: 0, 100, 200 ng His6-LexA, 25 nM probe, 20 uL; 30 mM KCl, 10 mM Tris-HCl (pH not stated), 0.4 mM DTT, 2 mM MgCl2, 0.2 mM EDTA, 2% glycerol; 30 min, 30 C; recombinant protein; residues 1-261; protein details: N-terminal His6 (pET-28a(+)); probe letters rebuilt from the primers and the genome.

As for “CGAGCACGAGCGCGGCGTCCACCGGGCGGTGCCGGGGCTGCCCGAGGACGAGGTCGATGCCGTACGCCGGGGGGACGTCGGCGGTGTGCGCGGTGGCCGGG (double strand) [Probe divIVA (101 bp)]”, the binding result is “binds”. Consider “CGTGACAGTGCCGGCCTCCTCCGCGACGACGATCGGCGCGGGCGCGCTCCGCGACCGTACGAGCCACCCGGCGCGCGACGCGGCGACCCACCCGGCCAGCGGCGTCAGCAGCATCAT (double strand) [Probe ftsH (117 bp)]”, for which the binding result is “binds”.

As for “GATAGCCGAGCTGGCCGCGGCAGGACTCGACGGCATCGAGGTCGACCATATGGACCACGACGCCCCGGCCCGCGCCCGGCTGGGCGGCCTCGCCGCCGACCTCTCCCTGCTGACCACG (double strand) [Probe rplJ (118 bp)]”, the binding result is given as “binds”. As for “GATCCCGCCGCTCGTACGGTCGGACATGTGCCCGGCAACCGGGCCGGGACCCACGCAGGTTACGTGTTCGAGGTGTGATGACGATGGAAACGACAAGGCCGGTGGCGGTG (double strand) [Probe araC1 (110 bp)]”, the entry is “binds”. “GTCATGACCCCCTGGCCGATTTCCGCCCCTCTTCTTCCACCATAAACCACGTCATCGAACATCCGTACGAACACGCGAGCGAACACCCCGCGTGCCTCCCGCCCTCGAGTC (double strand) [Probe sti (111 bp)]”: the binding result is on record as “binds”.
